Test results from doi:10.1101/2023.08.08.549832.
These are yes or no findings as the source states them, for the method shown. Binding seen in cells or lysates may run through a third protein. Binding can be weak; no strength is given. Tags and fused reporters may be left off the sequences shown.

B1: PTCH2-FLAG (receptor, UniProt Q9Y6C5 1-1203)
chain: MTRSPPLRELPPSYTPPARTAAPQILAGSLKAPLWLRAYFQGLLFSLGCGIQRHCGKVLFLGLLAFGALALGLRMAIIETNLEQLWVEVGSRVSQELHYTKEKLGEEAAYTSQMLIQTARQEGENILTPEALGLHLQAALTASKVQVSLYGKSWDLNKICYKSGVPLIENGMIERMIEKLFPCVILTPLDCFWEGAKLQGGSAYLPGRPDIQWTNLDPEQLLEELGPFASLEGFRELLDKAQVGQAYVGRPCLHPDDLHCPPSAPNHHSRQAPNVAHELSGGCHGFSHKFMHWQEELLLGGMARDPQGELLRAEALQSTFLLMSPRQLYEHFRGDYQTHDIGWSEEQASTVLQAWQRRFVQLAQEALPENASQQIHAFSSTTLDDILHAFSEVSAARVVGGYLLMLAYACVTMLRWDCAQSQGSVGLAGVLLVALAVASGLGLCALLGITFNAATTQVLPFLALGIGVDDVFLLAHAFTEALPGTPLQERMGECLQRTGTSVVLTSINNMAAFLMAALVPIPALRAFSLQAAIVVGCTFVAVMLVFPAILSLDLRRRHCQRLDVLCCFSSPCSAQVIQILPQELGDGTVPVGIAHLTATVQAFTHCEASSQHVVTILPPQAHLVPPPSDPLGSELFSPGGSTRDLLGQEEETRQKAACKSLPCARWNLAHFARYQFAPLLLQSHAKAIVLVLFGALLGLSLYGATLVQDGLALTDVVPRGTKEHAFLSAQLRYFSLYEVALVTQGGFDYAHSQRALFDLHQRFSSLKAVLPPPATQAPRTWLHYYRNWLQGIQAAFDQDWASGRITRHSYRNGSEDGALAYKLLIQTGDAQEPLDFSQLTTRKLVDREGLIPPELFYMGLTVWVSSDPLGLAASQANFYPPPPEWLHDKYDTTGENLRIPPAQPLEFAQFPFLLRGLQKTADFVEAIEGARAACAEAGQAGVHAYPSGSPFLFWEQYLGLRRCFLLAVCILLVCTFLVCALLLLNPWTAGLIVLVLAMMTVELFGIMGFLGIKLSAIPVVILVASVGIGVEFTVHVALGFLTTQGSRNLRAAHALEHTFAPVTDGAISTLLGLLMLAGSHFDFIVRYFFAALTVLTLLGLLHGLVLLPVLLSILGPPPEVIQMYKESPEILSPPAPQGGGLRWGASSSLPQSFARVTTSMTVAIHPPPLPGAYIHPAPDEPPWSPAATSSGNLSSRGPGPATG
B2: PTCH2-mCherry (receptor, UniProt Q9Y6C5 1-1203)
chain: B1 chain

Columns and labels:
[1] = target: PTCH1-eGFP (enhanced green fluorescent protein-tagged human PTCH1) (human); assay: FRET or BRET
[2] = target: myc-PTCH1 (human); assay: co-IP

Binder	binding [1]	binding [2]
B1	binds	binds
B2	binds	
